Data reported in paper PMC12222028.
These are yes or no findings as the source states them, for the method shown. In cells and extracts the contact can be indirect. These calls come from enrichment with a bait or labelling near it, and not all partners need be listed.

By UniProt entry, the sequences of proteins in these tests, tags left out. Residues count along the entry.
UniProt Q9P0T7, residues 21-183: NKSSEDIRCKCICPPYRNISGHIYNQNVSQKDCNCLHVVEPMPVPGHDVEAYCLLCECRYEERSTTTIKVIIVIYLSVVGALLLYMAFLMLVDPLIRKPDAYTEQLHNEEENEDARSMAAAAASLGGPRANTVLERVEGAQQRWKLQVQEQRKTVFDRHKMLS
UniProt P51793: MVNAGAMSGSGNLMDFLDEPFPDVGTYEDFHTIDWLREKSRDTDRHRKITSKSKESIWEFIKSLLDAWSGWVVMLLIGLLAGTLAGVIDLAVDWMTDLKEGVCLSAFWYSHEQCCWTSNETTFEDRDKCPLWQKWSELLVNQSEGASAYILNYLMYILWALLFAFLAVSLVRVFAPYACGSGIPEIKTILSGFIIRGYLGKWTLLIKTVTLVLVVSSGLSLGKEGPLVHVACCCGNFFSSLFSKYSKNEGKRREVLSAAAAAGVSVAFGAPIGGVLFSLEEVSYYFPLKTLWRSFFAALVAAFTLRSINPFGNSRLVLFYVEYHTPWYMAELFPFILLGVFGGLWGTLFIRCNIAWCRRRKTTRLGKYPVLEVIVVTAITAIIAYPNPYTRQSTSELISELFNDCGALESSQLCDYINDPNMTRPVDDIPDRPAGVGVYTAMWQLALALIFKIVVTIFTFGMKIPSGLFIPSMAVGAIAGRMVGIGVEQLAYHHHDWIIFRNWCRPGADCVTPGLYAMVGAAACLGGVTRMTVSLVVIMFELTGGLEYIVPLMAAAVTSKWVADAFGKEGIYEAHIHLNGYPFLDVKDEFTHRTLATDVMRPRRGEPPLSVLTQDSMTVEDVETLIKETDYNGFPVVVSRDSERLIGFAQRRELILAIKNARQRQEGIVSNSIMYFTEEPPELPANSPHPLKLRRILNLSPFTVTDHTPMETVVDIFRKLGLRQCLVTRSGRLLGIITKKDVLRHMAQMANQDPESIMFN

Target: TMEM9–HA (human) (UniProt Q9P0T7)
Assay: affinity purification with mass spectrometry; anti-HA IPs from TMEM9-/- iNeurons (day 21) with or without lentiviral expression of TMEM9-HA; 0.5% DDM extract; TMT-MS

binding: binds
Substance: CLCN4 (from UniProt P51793 1-760)
